Assay results as given in paper PMC8503633.
No constants are given. Whether binding was seen depends on the method and setting.

Chains of the proteins cited; added tags and fusions are not shown. Lines headed by an entry give the natural chain unless they say otherwise; changes in a name come on top.
UniProt Q96SZ5: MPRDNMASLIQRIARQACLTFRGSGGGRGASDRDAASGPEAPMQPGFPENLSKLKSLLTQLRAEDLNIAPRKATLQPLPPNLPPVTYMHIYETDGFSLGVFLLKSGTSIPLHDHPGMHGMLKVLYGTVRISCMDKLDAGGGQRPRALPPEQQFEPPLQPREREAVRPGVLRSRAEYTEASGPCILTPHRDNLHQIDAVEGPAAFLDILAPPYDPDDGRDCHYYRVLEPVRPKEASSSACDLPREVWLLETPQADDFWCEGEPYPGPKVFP

Molecular target: human cysteamine dioxygenase (ADO) C18S/C239S double-site variant (human) (UniProt Q96SZ5)
Experiment: SEC; gel filtration on a Superdex 200 column, 50 mM HEPES, 50 mM NaCl (pH 7.5); both purified

binding: no binding
Substance: human cysteamine dioxygenase (ADO) C18S/C239S double-site variant (from UniProt Q96SZ5 1-270) (enzyme)
